Results as given in paper PMC12723162, “Alphaherpesvirus pUL21 homologs use non-canonical sequences to compete with cellular adaptors for protein phosphatase 1 binding” (The Journal of Biological Chemistry, 2025).
Results are given in words; binding and its absence hold for the method and conditions named. In cells and extracts the contact can be indirect. Some results given as binding are weak or reduced against the parent protein; the word gives no strength. For some of these results: Where a sequence is shown, tags or fusion partners need not be part of it.

Amino acid sequences for entries named in this document (tags omitted).
UniProt F8RG07: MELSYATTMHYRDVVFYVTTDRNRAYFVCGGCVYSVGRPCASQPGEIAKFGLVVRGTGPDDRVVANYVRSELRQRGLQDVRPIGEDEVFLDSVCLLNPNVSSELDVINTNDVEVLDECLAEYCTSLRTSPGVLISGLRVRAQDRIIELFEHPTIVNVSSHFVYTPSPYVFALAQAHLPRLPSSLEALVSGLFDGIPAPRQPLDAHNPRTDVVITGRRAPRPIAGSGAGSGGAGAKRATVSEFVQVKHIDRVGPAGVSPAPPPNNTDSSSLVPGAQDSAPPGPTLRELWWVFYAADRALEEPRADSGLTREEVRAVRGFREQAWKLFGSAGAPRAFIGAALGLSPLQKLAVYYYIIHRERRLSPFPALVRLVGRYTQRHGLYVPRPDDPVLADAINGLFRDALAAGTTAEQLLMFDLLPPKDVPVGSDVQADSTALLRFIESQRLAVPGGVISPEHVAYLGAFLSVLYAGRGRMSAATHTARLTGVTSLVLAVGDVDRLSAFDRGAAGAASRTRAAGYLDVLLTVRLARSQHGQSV
UniProt P62136: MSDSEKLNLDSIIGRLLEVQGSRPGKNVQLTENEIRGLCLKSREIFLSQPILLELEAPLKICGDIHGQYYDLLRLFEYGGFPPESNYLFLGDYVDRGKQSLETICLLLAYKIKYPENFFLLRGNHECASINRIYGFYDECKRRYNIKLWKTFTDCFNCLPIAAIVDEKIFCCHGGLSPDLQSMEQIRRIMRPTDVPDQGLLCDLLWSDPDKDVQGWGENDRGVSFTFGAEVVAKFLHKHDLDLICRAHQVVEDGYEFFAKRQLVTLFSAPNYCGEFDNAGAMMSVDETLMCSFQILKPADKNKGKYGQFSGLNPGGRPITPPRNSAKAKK

T1: pORF38-GFP (VZV) (UniProt P09289)
T1 sequence: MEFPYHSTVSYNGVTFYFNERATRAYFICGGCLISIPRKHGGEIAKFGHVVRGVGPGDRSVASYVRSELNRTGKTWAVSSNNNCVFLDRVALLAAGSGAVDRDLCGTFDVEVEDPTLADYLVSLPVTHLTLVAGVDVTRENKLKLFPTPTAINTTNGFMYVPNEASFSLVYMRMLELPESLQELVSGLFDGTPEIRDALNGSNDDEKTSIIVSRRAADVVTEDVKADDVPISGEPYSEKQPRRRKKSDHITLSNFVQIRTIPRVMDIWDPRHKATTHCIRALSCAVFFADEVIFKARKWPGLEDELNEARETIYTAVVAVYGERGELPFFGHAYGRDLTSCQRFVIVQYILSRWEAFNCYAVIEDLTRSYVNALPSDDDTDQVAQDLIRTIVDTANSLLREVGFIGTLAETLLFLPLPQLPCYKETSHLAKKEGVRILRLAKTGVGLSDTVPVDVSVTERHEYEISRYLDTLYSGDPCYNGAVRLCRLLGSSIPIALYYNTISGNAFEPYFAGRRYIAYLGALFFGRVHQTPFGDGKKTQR


How the values were obtained:
[1] = molecular target: pUL21-GFP (HSV-1) (UniProt F8RG07); test: co-IP; HEK 293T co-transfected with pUL21-GFP and WT or mutant Myc-PP1α; GFP affinity capture; anti-Myc immunoblot; bound:input ratio by densitometry
[2] = molecular target: T1, pORF38-GFP (VZV); test: co-IP; HEK 293T transfected with GFP-tagged bait, lysed 24 h post-transfection (10 mM Tris pH 7.5, 150 mM NaCl, 0.5 mM EDTA, 0.5% Igepal CA-630); GFP-Trap capture; immunoblot for endogenous PP1α and CERT
[3] = molecular target: pUL21-GFP (HSV-1) (UniProt F8RG07); test: as above

Molecule | binding [1] | binding [2] | binding [3]
Myc-PP1α (from UniProt P62136 1-330) (enzyme) | binds | – | –
endogenous PP1α (from UniProt P62136 1-330) (enzyme) | – | binds | binds
CERT (protein, UniProt Q9Y5P4 1-624) MSDNQSWNSSGSEEDPETESGPPVERCGVLSKWTNYIHGWQDRWVVLKNNALSYYKSEDETEYGCRGSICLSKAVITPHDFDECRFDISVNDSVWYLRAQDPDHRQQWIDAIEQHKTESGYGSESSLRRHGSMVSLVSGASGYSATSTSSFKKGHSLREKLAEMETFRDILCRQVDTLQKYFDACADAVSKDELQRDKVVEDDEDDFPTTRSDGDFLHSTNGNKEKLFPHVTPKGINGIDFKGEAITFKATTAGILATLSHCIELMVKREDSWQKRLDKETEKKRRTEEAYKNAMTELKKKSHFGGPDYEEGPNSLINEEEFFDAVEAALDRQDKIEEQSQSEKVRLHWPTSLPSGDAFSSVGTHRFVQKPYSRSSSMSSIDLVSASDDVHRFSSQVEEMVQNHMTYSLQDVGGDANWQLVVEEGEMKVYRREVEENGIVLDPLKATHAVKGVTGHEVCNYFWNVDVRNDWETTIENFHVVETLADNAIIIYQTHKRVWPASQRDVLYLSVIRKIPALTENDPETWIVCNFSVDHDSAPLNNRCVRAKINVAMICQTLVSPPEGNQEISRDNILCKITYVANVNPGGWAPASVLRAVAKREYPKFLKRFTSYVQEKTAGKPILF | – | – | binds
